Measured values taken from PubChem BioAssay AID540256 (National Center for Advancing Translational Sciences (NCATS), 2011).
The whole screen tested about 300,000 compounds, of which about 3,700 (1.2%) were called active. Inconclusive results, whose numbers are uncertain, are shown with a selection of clear calls. Calls follow the shape of the full dose curve; tested in HEK293 cells. Where the call is inconclusive, the potency comes from a doubtful curve fit.

assay: qHTS for Inhibitors of binding or entry into cells for Lassa Virus; settings: Lassa virus pseudotype entry inhibition, cell reporter; activity change, negative = inhibition: at 37.9 µM (top of the series) unless noted; also: nearly all actives have a fitted effect of over 50% in size
% is scaled to controls: 0 for no effect and ±100 for the full control effect; potency is read from the fitted curve at half-maximal effect.

Structure (SMILES) | Potency | activity change, negative = inhibition
Cc1ccc2c(c1)C(N1CCCC1=O)CC(c1ccco1)N2 (stereo unspecified) | inconclusive: 10 µM [inhibitor, partial curve] | 
CC(C)(C)c1ccc(C(=O)NNc2ncnc3c2cnn3-c2ccc(Cl)cc2)cc1 | inconclusive: 35.5 µM [activator, single point] | 
Cc1oc(-c2ccc(Cl)cc2)cc1C(=O)O |  | inactive: -14.9% [at 46.1 µM]
CN(C(=O)c1ccco1)c1nc2c(s1)CCCC2 | active: 6.31 µM | 
COc1ccc(-c2nc(SCC(=O)Nc3c(F)cccc3F)n[nH]2)cc1 | inconclusive: 1.12 µM [inhibitor, full curve, poor fit] | 
COc1cc(CN(C(=O)COc2ccc(Cl)cc2)c2ccccn2)cc(OC)c1OC |  | inactive: 21.9% [at 46.1 µM]
Cc1ccc(C)c(NC(=O)C2CCN(c3ncnc4c3nc3n4CCCCC3)CC2)c1 |  | inactive: 17.6% [at 46.1 µM]
COc1ccccc1N1CCN(S(=O)(=O)c2ccc(-c3ccno3)cc2OC)CC1 |  | inactive: -21.7% [at 46.1 µM]
COc1cccc(-n2c(SCC(=O)Nc3cccc(C)c3)nc3c([nH]c4ccccc43)c2=O)c1 |  | inactive: -21.8% [at 46.1 µM]
Cc1cc(/C=C(\C#N)C(=O)NCc2ccco2)c(C)n1-c1cccnc1 |  | inactive: -21% [at 46.1 µM]
CC/C(=N/NC(=O)c1ccc(Br)cc1)c1ccc(OCCN2CCOCC2)cc1 |  | inactive: 6.88%
CCc1ccc(N(C(=O)c2snc(C(N)=O)c2N)C(C(=O)NCC2CCCO2)c2ccco2)cc1 (stereo unspecified) |  | inactive: -15.4%
Cc1cc(NS(=O)(=O)c2ccc(NC(=O)Nc3ccc4c(c3)OCO4)cc2)no1 | inconclusive: 29.1 µM [activator, single point] | 
CN(C(=O)COC(=O)c1cc2c(s1)CCCCC2)C1CCS(=O)(=O)C1 (stereo unspecified) |  | inactive: -10.9%
Cc1cc(C)c(NC(=O)c2cc(C(=O)O)ccc2C(=O)O)c([N+](=O)[O-])c1 |  | inactive: 21.3%
O=C(Cc1ccccc1)N/N=C/C=C/c1ccccc1[N+](=O)[O-] |  | inactive: -2.57%
Cc1ccc(-c2cnc3c(Cl)c(C)nn3c2)cc1 | inconclusive: 1.12 µM [inhibitor, partial curve, poor fit] | 
CC1=C(c2ccc(F)cc2)S(=O)(=O)N=C1N1CCC(C(=O)NCCc2ccccc2)CC1 | inconclusive: 1.41 µM [activator, partial curve, poor fit] | 
O=C(Nc1ccc(N2CCCC2)cc1)c1cccc(Cl)c1 | inconclusive: 2.82 µM [inhibitor, full curve] | 
Cc1ccc(C(=O)Nc2ccc(N3CCN(C)CC3)cc2)cc1 |  | inactive: 25.4% [at 46.1 µM]
N#Cc1ccc(C(c2nnnn2CCc2ccccc2)N2CCCCCC2)cc1 (stereo unspecified) | inconclusive: 8.2 µM [inhibitor, partial curve, poor fit] | 
O=C(CN1CCCCCCC1)N/N=C/c1ccccc1F |  | inactive: 6.64%
O=C(CSc1ccccc1)N1CCc2c([nH]c3ccccc23)C1c1ccc(Cl)cc1 (stereo unspecified) | inconclusive: 25.1 µM [inhibitor, single point] | 
O=C(c1cccc(-n2cccc2)c1)N1CCN(S(=O)(=O)c2ccccc2Br)CC1 | inconclusive: 35.5 µM [inhibitor, single point] | 

Structure (SMILES) | Potency | activity change, negative = inhibition
Cc1cccc(S(=O)(=O)c2cn(C)c3cc(N4CCCCCC4)c(F)cc3c2=O)c1 |  | inactive: 2.71% [at 46.1 µM]
O=C(CCC(=O)N1CCOCC1)Nc1ccc(Cl)c(Cl)c1 | inconclusive: 12.6 µM [inhibitor, partial curve, poor fit] | 
O=c1c2c3c(sc2nc2n1N=C(c1cccs1)CS2)CCCC3 | inconclusive: 0.316 µM [activator, full curve, poor fit] | 
Cc1ccc(CN2C(=O)C(O)(CC(=O)c3ccc(C)cc3)c3ccccc32)cc1 (stereo unspecified) | inconclusive: 1.78 µM [inhibitor, partial curve, poor fit] | 
N#CC1(c2ccccc2)CCN(C2CC(=O)N(c3cccc(F)c3)C2=O)CC1 (stereo unspecified) |  | inactive: 4.8%
COc1cc(S(=O)(=O)N2CC(=O)Nc3ccccc32)ccc1NC(C)=O | inconclusive: 2.51 µM [inhibitor, single point] | 
CN(C)c1ccc(C=Nc2ccccc2C(N)=O)cc1 | inconclusive: 14.6 µM [inhibitor, single point] | 
O=C(/C=C/c1ccc(Cl)cc1)NC(=S)Nc1ccc(C(=O)O)cc1 |  | inactive: 12.3% [at 46.1 µM]
O=C(Nc1ccccc1Cl)c1ccc2c(=O)n3c(nc2c1)CCC3 | inconclusive: 12.6 µM [inhibitor, partial curve, poor fit] | 
CCC(C)c1ccc(NC(=S)Nc2ccc(OC)cc2C)cc1 (stereo unspecified) |  | inactive: 3.37%
CCC(C)[C@H](NC(=O)C1CC(=O)N(c2ccc3c(c2)OCCO3)C1)C(=O)NC1CCCC1 (stereo partly specified) | inconclusive: 11.2 µM [activator, partial curve] | 
COC(=O)c1ccccc1SC1CC(=O)N(c2ccccc2)C1=O (stereo unspecified) | inconclusive: 25.9 µM [activator, single point] | 
O=S(=O)(c1cccc(-c2nnc(SC(F)F)n2-c2ccccc2)c1)N1CCCCC1 | inconclusive: 25.1 µM [inhibitor, single point] | 
O=C1CC(N2CCN(c3ccccn3)CC2)C(=O)N1CC(c1ccccc1)c1ccccc1 (stereo unspecified) | inconclusive: 18.3 µM [inhibitor, single point] | 
O=P(CCl)(Nc1ccccc1)C(Cl)(Cl)Cl (stereo unspecified) |  | inactive: -14.3%
O=C(CCc1c[nH]c2ccccc12)NCCc1ccc(O)cc1 | inconclusive: 7.94 µM [inhibitor, partial curve, poor fit] | 
CCc1ccc2occ(CC(=O)Nc3nnc(C)s3)c2c1 |  | inactive: -2.1% [at 46.1 µM]
O=C(CSc1nc2c([nH]c3ccccc32)c(=O)n1-c1ccccc1)NCc1ccc(F)cc1 | inconclusive: 10 µM [inhibitor, partial curve] | 
CCC(C)Nc1nc(-c2cccc(OC)c2O)nc2ccccc12 (stereo unspecified) | inconclusive: 22.4 µM [inhibitor, single point] | 
COc1cc(/C=N/O)ccc1OCc1ccc(C(=O)O)cc1 | inconclusive: 2 µM [inhibitor, full curve, poor fit] | 
CC(NC(=O)COc1ccccc1)C(=O)OCC(=O)c1cc2ccccc2o1 (stereo unspecified) | inconclusive: 4.61 µM [inhibitor, partial curve, poor fit] | 
Cc1nc(Nc2nc3ccccc3o2)nc2c1CCC2 | inconclusive: 0.0231 µM [activator, full curve, poor fit] | 
O=C(NCCCN1CCOCC1)c1ccc2c(c1)N(Cc1c(F)cccc1Cl)C(=O)CS2 | inconclusive: 3.55 µM [inhibitor, partial curve, poor fit] | 
O=C(Nc1ccccn1)c1cc(-c2cccnc2)nc2ccc(Br)cc12 | inconclusive: 22.4 µM [inhibitor, single point] | 

Compounds listed so far that contain a thiophene ring, fused or not (two):
Structure (SMILES) | Potency | activity change, negative = inhibition
CN(C(=O)COC(=O)c1cc2c(s1)CCCCC2)C1CCS(=O)(=O)C1 (stereo unspecified) |  | inactive: -10.9%
O=c1c2c3c(sc2nc2n1N=C(c1cccs1)CS2)CCCC3 | inconclusive: 0.316 µM [activator, full curve, poor fit] | 

The list goes on:

Structure (SMILES) | Potency | activity change, negative = inhibition
COCCN(C(=O)COC(=O)/C=C/c1ccc2c(c1)OCO2)c1c(N)n(Cc2ccccc2)c(=O)[nH]c1=O | inconclusive: 0.316 µM [inhibitor, partial curve, poor fit] | 
Cc1cc(C(=O)N(NC(=O)C(C)C)c2ccccc2)cs1 |  | inactive: -15.6% [at 46.1 µM]
Cc1ccc(OCC(=O)Nc2ccccc2F)cc1C | inconclusive: 2.82 µM [activator, partial curve, poor fit] | 
COc1cc(N2CCCC2)ccc1C=O | inconclusive: 0.562 µM [inhibitor, single point] | 
FC(F)Sc1ccc(N=C2NN=C(c3ccc4c(c3)OCCO4)CS2)cc1 | inconclusive: 29.1 µM [inhibitor, single point] | 
CC[n+]1c(/C=C/C=C/N(C(C)=O)c2ccccc2)sc2cc(OC)ccc21 | inconclusive: 7.08 µM [inhibitor, partial curve, poor fit] | 
Cc1oc2ccc(OC(=O)COc3c(F)c(F)c(F)c(F)c3F)cc2c1C(=O)OC(C)C | inconclusive: 20 µM [activator, single point] | 
CC(NC(=O)c1ccco1)C(=O)N1CCN(c2ccccc2)CC1 (stereo unspecified) |  | inactive: 2.08%
CCn1c(C)c(C(C)=O)c(N2CCN(c3ccc(OC)cc3)CC2)nc1=S |  | inactive: -5.2%
CCc1ccc(C(=O)COC(=O)c2cc([N+](=O)[O-])ccc2N2CCOCC2)cc1 | inconclusive: 7.08 µM [inhibitor, partial curve, poor fit] | 
Cc1cccc(OCc2nc(C#N)c(NCc3ccc4c(c3)OCO4)o2)c1 |  | inactive: 4.35%
CN(C)C(=O)c1noc2cc([N+](=O)[O-])ccc12 |  | inactive: -3.88%
O=C(NCCc1ccc(Cl)cc1)c1n[nH]c2ccccc12 | inconclusive: 1.83 µM [inhibitor, partial curve, poor fit] | 
CCN(CC)c1ccc(/C=C2\SC(=O)N(C(C)C)C2=O)o1 | inconclusive: 22.4 µM [inhibitor, single point] | 
Cc1cccc(NC(=O)c2ccc(NCC3CCCO3)c([N+](=O)[O-])c2)c1 (stereo unspecified) |  | inactive: 3.84%
Cc1onc(-c2ccccc2Cl)c1-c1nc(-c2ccncc2)no1 |  | inactive: 1.29%
CCN(CC)CCn1c2ccccc2c2cnc(N=CN(C)C)c(C#N)c21 | inconclusive: 11.2 µM [inhibitor, single point] | 
O=S1(=O)c2cccc(Cl)c2OC[C@H](c2ccccc2)N1Cc1cccc(Cl)c1 | inconclusive: 0.0223 µM [inhibitor, full curve] | 
Cc1ccc(N2CC(=O)N(CC(=O)O)C2=O)cc1 | inconclusive: 5.62 µM [activator, full curve, poor fit] | 
CC(=O)Nc1cccc(C#Cc2cncnc2Nc2ccc(OCc3cccc(F)c3)c(Cl)c2)c1 | active: 15.8 µM | 
Cc1cc2ccccc2nc1SCC(=O)N1CCCC1 |  | inactive: -0.318%
COc1ccc(CCNC(=O)Cn2nnc(C(=O)Nc3ccc(Br)cc3)c2N)cc1OC |  | inactive: -24.7% [at 46.1 µM]
Cc1c(C(=O)c2cccc3ccccc23)c2cccc3c2n1[C@H](CN1CCOCC1)CO3 | active: 20.6 µM | 

Grouped by structure: those above with a furan ring, fused or not (ten)
Structure (SMILES) | Potency | activity change, negative = inhibition
Cc1ccc2c(c1)C(N1CCCC1=O)CC(c1ccco1)N2 (stereo unspecified) | inconclusive: 10 µM [inhibitor, partial curve] | 
Cc1oc(-c2ccc(Cl)cc2)cc1C(=O)O |  | inactive: -14.9% [at 46.1 µM]
CN(C(=O)c1ccco1)c1nc2c(s1)CCCC2 | active: 6.31 µM | 
Cc1cc(/C=C(\C#N)C(=O)NCc2ccco2)c(C)n1-c1cccnc1 |  | inactive: -21% [at 46.1 µM]
CCc1ccc(N(C(=O)c2snc(C(N)=O)c2N)C(C(=O)NCC2CCCO2)c2ccco2)cc1 (stereo unspecified) |  | inactive: -15.4%
CCc1ccc2occ(CC(=O)Nc3nnc(C)s3)c2c1 |  | inactive: -2.1% [at 46.1 µM]
CC(NC(=O)COc1ccccc1)C(=O)OCC(=O)c1cc2ccccc2o1 (stereo unspecified) | inconclusive: 4.61 µM [inhibitor, partial curve, poor fit] | 
Cc1oc2ccc(OC(=O)COc3c(F)c(F)c(F)c(F)c3F)cc2c1C(=O)OC(C)C | inconclusive: 20 µM [activator, single point] | 
CC(NC(=O)c1ccco1)C(=O)N1CCN(c2ccccc2)CC1 (stereo unspecified) |  | inactive: 2.08%
CCN(CC)c1ccc(/C=C2\SC(=O)N(C(C)C)C2=O)o1 | inconclusive: 22.4 µM [inhibitor, single point] | 
